Data reported in the supplement of paper PMC10849652.
The list shows a part of the results.

Protein sequences, listed by entry. Tags and fused reporters are not part of them. Lines headed by an entry give the natural chain unless they say otherwise; changes in a name come on top.
UniProt Q9BXJ9: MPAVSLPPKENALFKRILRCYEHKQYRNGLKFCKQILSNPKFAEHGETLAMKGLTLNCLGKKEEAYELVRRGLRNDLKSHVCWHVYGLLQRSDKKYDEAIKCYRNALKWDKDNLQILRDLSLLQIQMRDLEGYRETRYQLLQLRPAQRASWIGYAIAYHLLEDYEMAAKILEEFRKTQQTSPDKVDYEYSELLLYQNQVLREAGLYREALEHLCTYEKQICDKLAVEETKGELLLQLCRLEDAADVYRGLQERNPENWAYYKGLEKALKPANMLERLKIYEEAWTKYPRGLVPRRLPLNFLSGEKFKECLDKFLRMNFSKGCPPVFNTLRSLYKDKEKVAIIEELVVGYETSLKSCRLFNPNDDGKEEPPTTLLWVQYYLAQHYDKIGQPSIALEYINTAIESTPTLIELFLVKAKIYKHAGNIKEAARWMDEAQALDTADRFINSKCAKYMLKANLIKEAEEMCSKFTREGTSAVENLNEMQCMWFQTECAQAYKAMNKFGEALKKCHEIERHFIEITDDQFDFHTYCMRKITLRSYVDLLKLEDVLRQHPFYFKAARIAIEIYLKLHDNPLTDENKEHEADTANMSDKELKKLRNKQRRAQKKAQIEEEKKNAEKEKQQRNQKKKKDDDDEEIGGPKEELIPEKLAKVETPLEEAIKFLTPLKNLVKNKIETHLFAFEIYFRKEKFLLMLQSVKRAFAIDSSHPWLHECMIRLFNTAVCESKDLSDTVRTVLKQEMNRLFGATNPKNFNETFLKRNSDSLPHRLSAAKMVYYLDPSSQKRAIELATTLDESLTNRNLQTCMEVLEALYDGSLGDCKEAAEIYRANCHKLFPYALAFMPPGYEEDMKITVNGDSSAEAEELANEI
UniProt P14649: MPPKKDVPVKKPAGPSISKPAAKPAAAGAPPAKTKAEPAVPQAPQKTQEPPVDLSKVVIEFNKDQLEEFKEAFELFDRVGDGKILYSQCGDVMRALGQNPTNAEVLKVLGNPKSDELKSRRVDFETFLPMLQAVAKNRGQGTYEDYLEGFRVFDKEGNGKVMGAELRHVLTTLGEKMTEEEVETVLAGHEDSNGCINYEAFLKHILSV
UniProt P54802: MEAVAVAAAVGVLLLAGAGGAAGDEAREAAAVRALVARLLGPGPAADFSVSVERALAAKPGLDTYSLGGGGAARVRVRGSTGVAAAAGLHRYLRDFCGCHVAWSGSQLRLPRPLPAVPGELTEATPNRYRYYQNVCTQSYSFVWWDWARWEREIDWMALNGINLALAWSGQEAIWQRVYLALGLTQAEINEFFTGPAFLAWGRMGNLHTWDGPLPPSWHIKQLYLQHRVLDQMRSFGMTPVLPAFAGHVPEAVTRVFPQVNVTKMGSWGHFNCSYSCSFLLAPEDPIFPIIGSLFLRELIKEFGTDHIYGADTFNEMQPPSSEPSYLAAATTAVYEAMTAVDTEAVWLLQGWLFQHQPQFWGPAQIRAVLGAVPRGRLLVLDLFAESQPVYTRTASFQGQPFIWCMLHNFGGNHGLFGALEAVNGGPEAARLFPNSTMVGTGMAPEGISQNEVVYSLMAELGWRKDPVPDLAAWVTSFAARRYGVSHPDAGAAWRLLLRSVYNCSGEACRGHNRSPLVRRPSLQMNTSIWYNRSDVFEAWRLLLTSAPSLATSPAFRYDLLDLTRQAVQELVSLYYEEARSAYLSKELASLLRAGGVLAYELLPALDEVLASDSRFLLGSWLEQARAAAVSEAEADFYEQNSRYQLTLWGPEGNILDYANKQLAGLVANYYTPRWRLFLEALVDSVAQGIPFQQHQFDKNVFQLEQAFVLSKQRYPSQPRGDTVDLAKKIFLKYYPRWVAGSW
UniProt O94832: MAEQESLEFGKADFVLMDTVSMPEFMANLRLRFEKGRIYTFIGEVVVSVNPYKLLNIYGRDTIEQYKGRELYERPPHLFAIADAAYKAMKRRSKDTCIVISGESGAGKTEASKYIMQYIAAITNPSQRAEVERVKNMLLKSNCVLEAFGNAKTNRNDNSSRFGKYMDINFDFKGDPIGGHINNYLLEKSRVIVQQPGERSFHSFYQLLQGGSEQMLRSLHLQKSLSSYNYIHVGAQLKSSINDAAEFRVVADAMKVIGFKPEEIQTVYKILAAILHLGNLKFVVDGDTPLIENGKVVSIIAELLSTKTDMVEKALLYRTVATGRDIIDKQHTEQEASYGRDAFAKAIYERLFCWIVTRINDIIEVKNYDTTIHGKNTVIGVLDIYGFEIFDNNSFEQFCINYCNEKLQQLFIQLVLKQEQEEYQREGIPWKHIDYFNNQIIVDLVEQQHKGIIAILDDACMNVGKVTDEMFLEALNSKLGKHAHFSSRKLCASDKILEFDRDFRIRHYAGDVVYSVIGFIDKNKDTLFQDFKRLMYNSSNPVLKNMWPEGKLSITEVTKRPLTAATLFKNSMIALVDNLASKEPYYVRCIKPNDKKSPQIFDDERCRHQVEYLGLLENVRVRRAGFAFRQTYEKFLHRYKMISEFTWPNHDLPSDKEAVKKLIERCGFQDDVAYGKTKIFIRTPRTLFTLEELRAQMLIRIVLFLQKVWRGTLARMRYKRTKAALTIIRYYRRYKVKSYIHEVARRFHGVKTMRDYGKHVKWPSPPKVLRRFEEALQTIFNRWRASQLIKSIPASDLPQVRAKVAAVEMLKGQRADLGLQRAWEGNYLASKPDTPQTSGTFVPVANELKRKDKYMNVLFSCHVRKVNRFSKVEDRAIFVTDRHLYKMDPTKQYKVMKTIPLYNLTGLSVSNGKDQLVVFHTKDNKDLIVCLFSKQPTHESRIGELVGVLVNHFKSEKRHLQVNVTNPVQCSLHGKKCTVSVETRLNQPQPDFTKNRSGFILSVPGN
UniProt Q9BTX1: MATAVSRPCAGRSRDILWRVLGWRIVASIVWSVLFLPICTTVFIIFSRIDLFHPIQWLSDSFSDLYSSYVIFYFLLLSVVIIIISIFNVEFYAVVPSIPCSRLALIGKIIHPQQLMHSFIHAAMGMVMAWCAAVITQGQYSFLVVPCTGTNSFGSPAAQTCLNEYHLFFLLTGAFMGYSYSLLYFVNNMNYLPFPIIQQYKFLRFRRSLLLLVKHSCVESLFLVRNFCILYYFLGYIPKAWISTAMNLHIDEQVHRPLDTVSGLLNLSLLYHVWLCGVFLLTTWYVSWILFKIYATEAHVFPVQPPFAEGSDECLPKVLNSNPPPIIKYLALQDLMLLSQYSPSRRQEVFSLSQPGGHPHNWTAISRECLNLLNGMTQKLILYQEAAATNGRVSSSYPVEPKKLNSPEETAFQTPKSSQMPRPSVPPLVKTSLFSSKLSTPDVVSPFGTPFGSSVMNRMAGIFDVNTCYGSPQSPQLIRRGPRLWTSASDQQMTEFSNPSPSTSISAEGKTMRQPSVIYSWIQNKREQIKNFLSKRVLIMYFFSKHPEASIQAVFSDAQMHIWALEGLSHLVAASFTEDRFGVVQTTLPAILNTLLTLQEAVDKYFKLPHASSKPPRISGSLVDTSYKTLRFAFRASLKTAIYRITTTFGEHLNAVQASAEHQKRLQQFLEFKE
UniProt P35749, whole entry, looked up: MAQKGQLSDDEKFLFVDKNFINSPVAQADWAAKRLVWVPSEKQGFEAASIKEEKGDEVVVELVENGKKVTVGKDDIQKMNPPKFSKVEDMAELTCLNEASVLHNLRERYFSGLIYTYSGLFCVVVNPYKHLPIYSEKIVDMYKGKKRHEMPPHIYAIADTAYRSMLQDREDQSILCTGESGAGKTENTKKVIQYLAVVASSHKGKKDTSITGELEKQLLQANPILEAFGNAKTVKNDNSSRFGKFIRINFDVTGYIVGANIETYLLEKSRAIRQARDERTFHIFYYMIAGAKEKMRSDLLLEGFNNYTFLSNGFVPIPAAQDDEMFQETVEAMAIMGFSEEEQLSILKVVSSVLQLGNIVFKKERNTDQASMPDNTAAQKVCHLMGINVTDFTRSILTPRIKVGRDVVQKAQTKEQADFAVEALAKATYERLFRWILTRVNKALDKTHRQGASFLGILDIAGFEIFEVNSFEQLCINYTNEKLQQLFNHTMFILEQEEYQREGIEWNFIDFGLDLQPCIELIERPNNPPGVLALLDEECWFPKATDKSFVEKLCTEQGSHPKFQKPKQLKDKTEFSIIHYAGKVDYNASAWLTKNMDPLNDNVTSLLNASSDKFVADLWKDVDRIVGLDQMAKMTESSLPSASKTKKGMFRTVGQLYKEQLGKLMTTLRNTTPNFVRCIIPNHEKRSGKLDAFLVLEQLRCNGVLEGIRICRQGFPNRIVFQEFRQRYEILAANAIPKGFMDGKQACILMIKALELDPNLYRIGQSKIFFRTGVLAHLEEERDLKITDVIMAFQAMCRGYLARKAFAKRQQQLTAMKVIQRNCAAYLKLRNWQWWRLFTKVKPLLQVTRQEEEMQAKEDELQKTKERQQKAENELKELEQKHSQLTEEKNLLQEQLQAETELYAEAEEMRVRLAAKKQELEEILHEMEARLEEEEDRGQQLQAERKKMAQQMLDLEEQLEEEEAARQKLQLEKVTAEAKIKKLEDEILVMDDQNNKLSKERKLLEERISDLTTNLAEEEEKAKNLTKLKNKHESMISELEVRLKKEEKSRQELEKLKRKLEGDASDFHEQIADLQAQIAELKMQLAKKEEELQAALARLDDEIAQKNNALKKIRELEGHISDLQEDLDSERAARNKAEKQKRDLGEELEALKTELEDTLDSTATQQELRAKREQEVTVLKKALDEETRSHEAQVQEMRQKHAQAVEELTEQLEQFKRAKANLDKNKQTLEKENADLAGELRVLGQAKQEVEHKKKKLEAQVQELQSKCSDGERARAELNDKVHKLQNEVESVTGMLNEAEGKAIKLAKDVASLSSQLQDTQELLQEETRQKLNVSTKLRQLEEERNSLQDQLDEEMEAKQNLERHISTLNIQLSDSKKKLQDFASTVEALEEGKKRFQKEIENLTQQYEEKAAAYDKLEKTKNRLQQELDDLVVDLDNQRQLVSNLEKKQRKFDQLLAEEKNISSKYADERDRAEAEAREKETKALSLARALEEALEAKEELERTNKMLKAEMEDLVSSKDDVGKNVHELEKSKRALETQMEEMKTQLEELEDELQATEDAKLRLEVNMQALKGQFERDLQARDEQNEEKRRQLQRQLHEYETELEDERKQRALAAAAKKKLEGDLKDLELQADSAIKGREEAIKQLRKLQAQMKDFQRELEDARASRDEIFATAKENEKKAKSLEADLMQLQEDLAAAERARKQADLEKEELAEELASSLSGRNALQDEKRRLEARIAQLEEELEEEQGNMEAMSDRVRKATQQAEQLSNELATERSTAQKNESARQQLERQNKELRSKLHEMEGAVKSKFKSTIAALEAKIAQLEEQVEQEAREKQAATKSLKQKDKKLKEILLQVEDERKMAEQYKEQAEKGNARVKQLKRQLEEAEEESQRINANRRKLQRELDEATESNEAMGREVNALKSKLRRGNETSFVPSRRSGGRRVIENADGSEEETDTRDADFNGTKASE
UniProt Q9H115: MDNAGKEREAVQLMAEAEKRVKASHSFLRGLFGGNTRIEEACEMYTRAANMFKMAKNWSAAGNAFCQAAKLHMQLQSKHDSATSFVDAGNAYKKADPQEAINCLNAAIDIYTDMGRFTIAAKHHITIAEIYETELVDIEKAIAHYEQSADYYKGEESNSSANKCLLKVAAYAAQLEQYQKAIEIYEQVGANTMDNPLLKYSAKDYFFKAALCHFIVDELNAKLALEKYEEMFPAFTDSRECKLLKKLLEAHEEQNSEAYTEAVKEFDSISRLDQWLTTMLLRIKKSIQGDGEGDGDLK
UniProt Q6IBW4: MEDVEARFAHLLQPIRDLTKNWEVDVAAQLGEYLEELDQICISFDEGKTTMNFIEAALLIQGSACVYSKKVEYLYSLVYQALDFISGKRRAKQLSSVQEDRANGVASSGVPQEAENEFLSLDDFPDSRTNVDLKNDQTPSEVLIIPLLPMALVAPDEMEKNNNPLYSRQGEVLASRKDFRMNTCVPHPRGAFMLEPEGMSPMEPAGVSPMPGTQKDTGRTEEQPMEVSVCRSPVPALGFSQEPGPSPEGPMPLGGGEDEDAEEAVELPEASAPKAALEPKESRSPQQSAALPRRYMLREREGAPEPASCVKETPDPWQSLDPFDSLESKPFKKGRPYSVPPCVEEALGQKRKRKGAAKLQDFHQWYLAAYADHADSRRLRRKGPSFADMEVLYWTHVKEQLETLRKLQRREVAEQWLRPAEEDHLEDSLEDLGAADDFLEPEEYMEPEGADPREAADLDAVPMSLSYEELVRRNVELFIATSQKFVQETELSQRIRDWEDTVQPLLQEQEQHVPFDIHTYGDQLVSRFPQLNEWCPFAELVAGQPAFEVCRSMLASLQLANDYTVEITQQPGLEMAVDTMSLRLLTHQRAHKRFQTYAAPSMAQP

Assays:
Test in all cases: log2 fold change, soluble protein after heating vs DMSO (PISA); higher = thermal stabilisation; K562 lysate, 10 uM; active = over 0.2 and 3.5 SD of the protein, either way, in both replicates (recomputed)
[1] = compound: C#Cc1cccc(Nc2ncnc3cc(OCCOC)c(OCCOC)cc23)c1 [erlotinib]
Summary of the method: (§1)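 Dounce homogenisation of K562 pellets in PBS pH 7.4 with 1 mM MgCl2 produced a crude extract, used at 1 mg/mL protein. Exposure to 10 μM compound lasted 30 min, and aliquots were then heated for 3 min across 48°C-58°C, pooled and brought to 0.5% NP-40 at 4°C. The supernatant after 21,000xg for 90 min was quantified by TMTpro 16plex LC-MS/MS with channel sums equalised. Duplicate values are given as log-two fold change in thermal stability relative to solvent controls.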

[2] = compound: C/C(=N\NC(=O)C1=CC(=CC=C1)S(=O)(=O)N2CCOCC2)/C3=C(C=CC(=C3)Cl)O
Summary of the method: as §1

[3] = compound: C1=CC(=CC=C1C2=NC3=C(N2)C=C(C=C3)C(=O)N)OC4=CC=C(C=C4)Cl
Summary of the method: as §1

[4] = compound: C1=CC2=C(C=CC(=C2)/C=C\3/C(=O)NC(=NCC4=CC=CS4)S3)N=C1
Summary of the method: as §1

[5] = compound: C1=CC2=NC=CN=C2C=C1/C=C/3\C(=O)NC(=O)S3
Summary of the method: as §1

[6] = compound: C1=CC=C(C=C1)C2=NC(=C(N2)C3=CC=NC=C3)C4=CC(=C(C=C4)Cl)O
Summary of the method: as §1

[7] = compound: C1=CC=C2C(=C1)C3=NNC4=CC=CC(=C43)C2=O
Summary of the method: as §1

[8] = compound: C1CCN(C1)C(=O)NC2=CC=CC(=C2)NC3=NC=C(C(=N3)NCCC4=CN=CN4)Br
Summary of the method: as §1

[9] = compound: C1CN(CCC1(CC2=CC=C(C=C2)Cl)N)C3=NC=NC4=C3C=CN4
Summary of the method: as §1

[10] = compound: C1COCCN1CCN2C3=CC=CC=C3N=C2NC(=O)C4=CC(=CC=C4)[N+](=O)[O-] [IRAK-1-4 Inhibitor I]
Summary of the method: as §1

[11] = compound: C=CC(=O)N1CCC[C@@H](n2nc(-c3ccc(Oc4ccccc4)cc3)c3c(N)ncnc32)C1 [ibrutinib]
Summary of the method: as §1

[12] = compound: CC(=O)c1cnc2ccc(-c3cc(Cl)c(O)c(Cl)c3)nc2c1N[C@H]1CC[C@H](CN(C)C)CC1
Summary of the method: as §1

[13] = compound: CC(C)(C)Cn1c(N)nc2ccc(-c3[nH]c(C(C)(C)C)nc3-c3ccc(F)cc3)nc21 [ralimetinib]
Summary of the method: as §1

[14] = compound: CC(C)(O)CC(=O)NCCn1ccc2ncnc(Nc3ccc(Oc4cccc(C(F)(F)F)c4)c(Cl)c3)c21
Summary of the method: as §1

[15] = compound: CC(C)C1=C2N=C(C=C(N2N=C1)NCC3=CC=CC=C3)NCCCCCCN
Summary of the method: as §1

[16] = compound: CC1=C(C(CC(=O)N1)C2=CC=C(C=C2)C(F)(F)F)C(=O)NC3=C(C=C4C(=C3)C=NN4)F
Summary of the method: as §1

[17] = compound: CC1=C(C2=C(C=C1)C(=O)C3=CC=CC=C3N2CCCN)C
Summary of the method: as §1

[18] = compound: CC1=C(C=C(C=C1)NC(=O)C2=CC(=CC=C2)C(C)(C)C#N)NC3=CC4=C(C=C3)N=CN(C4=O)C
Summary of the method: as §1

[19] = compound: CC1=C(C=C(C=C1)NC(=O)C2=CC(=CC=C2)N(C)C)NC(=O)C3=CC=C(C=C3)O
Summary of the method: as §1

[20] = compound: CC1=CC=C(C=C1)SC2=C3C=C(SC3=CN=C2)C(=O)N
Summary of the method: as §1

Measured: log2 fold change

MYCBP2 (UniProt O75592)
inactive: [1] 0.01 | [2] 0 | [3] 0.031 | [4] 0.008 | [5] -0.008 | [6] 0.031 | [7] -0.023 | [8] 0.004 | [9] 0.03 | [10] 0.022 | [11] 0.014 | [12] -0.027 | [13] 0.033 | [14] -0.085 | [15] 0.014 | [16] 0.016 | [17] -0.028 | [18] 0.028 | [19] 0.036 | [20] -0.033

NAA15 (UniProt Q9BXJ9)
inactive: [1] -0.009 | [2] 0.033 | [3] -0.006 | [4] 0.005 | [5] -0.001 | [6] -0.043 | [7] 0 | [8] -0.007 | [9] -0.004 | [10] -0.004 | [11] -0.014 | [12] 0.004 | [13] -0.001 | [14] 0.02 | [15] -0.012 | [16] -0.021 | [17] 0.016 | [18] -0.007 | [19] 0.002 | [20] 0.012

MYL6B (UniProt P14649)
inactive: [1] -0.032 | [2] -0.036 | [3] -0.015 | [4] 0.042 | [5] 0.007 | [6] 0.012 | [7] -0.006 | [8] 0.02 | [9] 0.001 | [10] 0.003 | [11] 0.035 | [12] 0.041 | [13] -0.004 | [14] 0.012 | [15] -0.025 | [16] -0.028 | [17] 0.011 | [18] 0.011 | [19] -0.03 | [20] 0.012

NAGLU (UniProt P54802)
inactive: [1] 0.006 | [2] 0.009 | [3] 0.064 | [4] 0.022 | [5] -0.003 | [6] -0.02 | [7] -0.02 | [8] 0.022 | [9] 0.004 | [10] 0.011 | [11] 0.05 | [12] 0.025 | [13] 0.044 | [14] -0.133 | [15] 0.034 | [16] -0.167 | [17] 0.008 | [18] 0.11 | [19] -0.04 | [20] 0

MYH10 isoform 3 (UniProt P35580)
inactive: [1] -0.005 | [2] -0.022 | [3] 0.022 | [4] -0.016 | [5] -0.006 | [6] 0.013 | [7] -0.015 | [8] 0.004 | [9] 0.013 | [10] 0.001 | [11] -0.016 | [12] -0.005 | [13] 0 | [14] -0.05 | [15] -0.004 | [16] -0.012 | [17] 0.01 | [18] 0.007 | [19] -0.011 | [20] -0.013

MYO1D (UniProt O94832)
inactive: [1] 0.01 | [2] -0.064 | [3] -0.022 | [4] 0.004 | [5] 0.006 | [6] 0.01 | [7] -0.083 | [8] 0.015 | [9] 0.031 | [10] -0.027 | [11] -0.016 | [12] -0.012 | [13] 0.04 | [14] 0.003 | [15] 0.018 | [16] -0.021 | [17] -0.009 | [18] -0.014 | [19] 0.01 | [20] 0.031

NAA30 (UniProt Q147X3)
inactive: [1] 0.015 | [2] -0.027 | [3] 0.061 | [4] 0.026 | [5] -0.007 | [6] -0.046 | [7] -0.038 | [8] -0.088 | [9] -0.031 | [10] 0.085 | [11] 0.013 | [12] -0.017 | [13] 0.057 | [14] -0.037 | [15] -0.018 | [16] 0.084 | [17] -0.024 | [18] -0.045 | [19] 0.004 | [20] 0.046

NDC1 (UniProt Q9BTX1)
inactive: [1] -0.002 | [2] 0.015 | [3] 0.026 | [4] 0.047 | [5] 0.031 | [6] -0.005 | [7] -0.077 | [8] 0.013 | [9] 0.024 | [10] 0.026 | [11] 0.009 | [12] -0.02 | [13] 0.007 | [14] -0.012 | [15] -0.013 | [16] -0.009 | [17] -0.031 | [18] 0.032 | [19] 0.007 | [20] 0.072

MYH11 isoform 2 (UniProt P35749)
inactive: [1] -0.015 | [2] 0.035 | [3] 0.027 | [4] -0.002 | [5] -0.092 | [6] 0.142 | [7] -0.038 | [8] -0.036 | [9] 0.047 | [10] 0.013 | [11] -0.051 | [12] -0.011 | [13] -0.094 | [14] -0.043 | [15] 0.013 | [16] -0.019 | [17] -0.007 | [18] -0.043 | [19] 0 | [20] -0.004

NAPB (UniProt Q9H115)
inactive: [1] -0.016 | [2] -0.311 | [3] 0.007 | [4] -0.01 | [5] 0.043 | [6] 0.029 | [7] -0.021 | [8] 0.009 | [9] 0.029 | [10] 0.008 | [11] -0.043 | [12] -0.009 | [13] -0.019 | [14] 0.025 | [15] -0.01 | [16] 0.055 | [17] 0.103 | [18] 0.02 | [19] -0.062 | [20] 0.017

NCAPH2 (UniProt Q6IBW4)
inactive: [1] -0.031 | [2] -0.085 | [3] 0.011 | [4] -0.012 | [5] 0.026 | [6] 0 | [7] -0.005 | [8] -0.038 | [9] 0.042 | [10] 0.009 | [11] -0.033 | [12] -0.01 | [13] 0.066 | [14] -0.091 | [15] 0.028 | [16] -0.017 | [17] 0 | [18] 0.01 | [19] 0.055 | [20] 0.011

NAA40 (UniProt Q86UY6)
inactive: [1] 0.002 | [2] 0.03 | [3] -0.012 | [4] 0.065 | [5] -0.123 | [6] 0.055 | [7] 0.033 | [8] 0.048 | [9] -0.024 | [10] -0.004 | [11] 0.023 | [12] 0.027 | [13] 0.052 | [14] -0.002 | [15] -0.044 | [16] -0.053 | [17] -0.039 | [18] -0.007 | [19] -0.033 | [20] 0.043

NCBP3 (UniProt Q53F19)
inactive: [1] 0.073 | [2] -0.096 | [3] 0.004 | [4] 0.099 | [5] 0.005 | [6] 0.022 | [7] 0.014 | [8] -0.001 | [9] -0.111 | [10] 0.059 | [11] -0.021 | [12] 0.01 | [13] -0.106 | [14] -0.061 | [15] 0.011 | [16] -0.032 | [17] 0.024 | [18] -0.004 | [19] 0.053 | [20] 0.013

MVB12A (UniProt Q96EY5)
inactive: [1] 0.027 | [2] -0.049 | [3] 0.022 | [4] -0.001 | [5] -0.024 | [6] -0.001 | [7] -0.046 | [8] -0.089 | [9] -0.003 | [10] -0.001 | [11] 0.049 | [12] 0.009 | [13] -0.008 | [14] 0.001 | [15] -0.003 | [16] -0.015 | [17] 0.033 | [18] -0.015 | [19] 0.043 | [20] 0.02

2 records drawn at random from the list so far, as already listed:
NAA30 (UniProt Q147X3)
inactive: [1] 0.015 | [2] -0.027 | [3] 0.061 | [4] 0.026 | [5] -0.007 | [6] -0.046 | [7] -0.038 | [8] -0.088 | [9] -0.031 | [10] 0.085 | [11] 0.013 | [12] -0.017 | [13] 0.057 | [14] -0.037 | [15] -0.018 | [16] 0.084 | [17] -0.024 | [18] -0.045 | [19] 0.004 | [20] 0.046

MYH11 isoform 2 (UniProt P35749)
inactive: [1] -0.015 | [2] 0.035 | [3] 0.027 | [4] -0.002 | [5] -0.092 | [6] 0.142 | [7] -0.038 | [8] -0.036 | [9] 0.047 | [10] 0.013 | [11] -0.051 | [12] -0.011 | [13] -0.094 | [14] -0.043 | [15] 0.013 | [16] -0.019 | [17] -0.007 | [18] -0.043 | [19] 0 | [20] -0.004

Later entries:

NCOA5 (UniProt Q9HCD5)
inactive: [1] -0.03 | [2] -0.036 | [3] 0.117 | [4] -0.021 | [5] -0.072 | [6] 0.068 | [7] -0.04 | [8] -0.034 | [9] -0.031 | [10] 0.018 | [11] 0.105 | [12] 0.049 | [13] -0.091 | [14] 0.04 | [15] -0.015 | [16] -0.145 | [17] 0.017 | [18] 0.046 | [19] -0.101 | [20] 0.014

NAGA (UniProt P17050)
inactive: [1] 0.009 | [2] -0.233 | [3] -0.032 | [4] 0.048 | [5] 0.058 | [6] -0.006 | [7] -0.055 | [8] 0.012 | [9] 0.023 | [10] 0.016 | [11] -0.097 | [12] 0.028 | [13] -0.015 | [14] -0.016 | [15] -0.036 | [16] -0.006 | [17] -0.015 | [18] -0.026 | [19] 0.009 | [20] -0.017
